PubChem BioAssay AID1508587 | Peter MacCallum Cancer Centre | 2020
This is one part, drawn at random, of about 1,600 reagents. 623 of them (39%) count as active. 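Calls are for each duplex; lactate ratios contain extreme outliers.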 Entries without a mark were called inactive. The numbers tell different reagents against one gene apart. No sequences are given here.

- Screen: 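Retest of knockdowns boosting BRAF inhibitor action on lactate release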 (follow-up of hits)
- System: human WM266.4 melanoma cells with a BRAF V600 mutation
- Reagents: single siRNA against human genes, 25 nM
- Duration: 96 h
- Treatment: vemurafenib 300 nM (about IC25), given 48 h after transfection for 48 h
- Measurement: 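Medium lactate read by absorbance over DAPI-counted nuclei; ratio with versus without vemurafenib, set against non-targeting siRNA, averaged over 2 replicates; cell number also recorded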
- Direction: lactate per cell, drug vs no drug: higher = less drug-induced drop in lactate per cell; lactate per cell with vemurafenib: higher = more lactate per cell under drug; lactate per cell without drug: higher = more lactate per cell without drug; cell growth with vemurafenib and cell growth without drug: higher = more cell growth over 48 h
- Active means: 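a duplex is active when its lactate-per-cell ratio with versus without drug falls under 0.55, i.e. 2 SD below non-targeting; a gene is confirmed if 2 or more of 4 duplexes pass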

gene symbol | siRNA no. | lactate per cell, drug vs no drug | lactate per cell with vemurafenib | lactate per cell without drug | cell growth with vemurafenib | cell growth without drug
SDCCAG8 (SHH signaling and ciliogenesis regulator SDCCAG8) | 1 | 0.44 (active) | 0.66 | 1.01 | -0.24 | 0.04
SDCCAG8 (SHH signaling and ciliogenesis regulator SDCCAG8) | 2 | 0.4 (active) | 0.86 | 1.54 | 0.03 | 0.15
SDCCAG8 (SHH signaling and ciliogenesis regulator SDCCAG8) | 3 | 0.6 | 1.38 | 1.68 | 0.43 | 0.38
SDCCAG8 (SHH signaling and ciliogenesis regulator SDCCAG8) | 4 | 0.73 | 1.94 | 1.9 | 0.07 | 0.14
ATXN2L (ataxin 2 like) | 1 | 0.44 (active) | 0.98 | 1.53 | 0.21 | 0.33
ATXN2L (ataxin 2 like) | 2 | 0.88 | 2.29 | 1.77 | -0.07 | 0.06
ATXN2L (ataxin 2 like) | 3 | 0.43 (active) | 1.04 | 1.66 | 0.31 | 0.18
ATXN2L (ataxin 2 like) | 4 | 0.29 (active) | 0.34 | 0.92 | 0.27 | 0.21
IL1RAPL1 (interleukin 1 receptor accessory protein like 1) | 1 | 0.7 | 1.5 | 1.42 | 0.3 | 0.34
IL1RAPL1 (interleukin 1 receptor accessory protein like 1) | 2 | 0.52 (active) | 0.64 | 0.82 | 0.7 | 1.17
IL1RAPL1 (interleukin 1 receptor accessory protein like 1) | 3 | 0.64 | 2.1 | 2.15 | 0.46 | 0.36
IL1RAPL1 (interleukin 1 receptor accessory protein like 1) | 4 | 0.6 | 0.66 | 0.73 | 0.15 | 0.36
PCIF1 (phosphorylated CTD interacting factor 1) | 1 | 0.7 | 1.56 | 1.62 | 0.03 | 0.12
PCIF1 (phosphorylated CTD interacting factor 1) | 2 | 0.96 | 1.7 | 1.28 | 0.09 | 0.53
PCIF1 (phosphorylated CTD interacting factor 1) | 3 | 0.55 | 1.06 | 1.38 | 0.33 | 0.17
PCIF1 (phosphorylated CTD interacting factor 1) | 4 | 0.84 | 0.98 | 0.87 | 1.05 | 1.38
GPR157 (G protein-coupled receptor 157) | 1 | 0.58 | 1.55 | 1.73 | 0.29 | 0.29
GPR157 (G protein-coupled receptor 157) | 2 | 0.3 (active) | 0.2 | 0.42 | 0.15 | 0.36
GPR157 (G protein-coupled receptor 157) | 3 | 0.8 | 4.66 | 3.83 | 0.03 | 0.04
GPR157 (G protein-coupled receptor 157) | 4 | 0.76 | 1.08 | 0.89 | 1.17 | 1.29

Reformatted: entries from further up.
gene symbol,siRNA no.,"lactate per cell, drug vs no drug",lactate per cell with vemurafenib,lactate per cell without drug,cell growth with vemurafenib,cell growth without drug
PCIF1 (phosphorylated CTD interacting factor 1),3,0.55,1.06,1.38,0.33,0.17
PCIF1 (phosphorylated CTD interacting factor 1),4,0.84,0.98,0.87,1.05,1.38
GPR157 (G protein-coupled receptor 157),1,0.58,1.55,1.73,0.29,0.29
